## Cell number after 72 h of treatment

Compounds and concentrations:
GSK650394: O=C(O)c1ccc(-c2c[nH]c3ncc(-c4ccccc4)cc23)cc1C1CCCC1 at 0.8 µM
lenalidomide: Nc1cccc2c1CN(C1CCC(=O)NC1=O)C2=O (centres undefined) at 5 µM
IMD-0354: O=C(Nc1cc(C(F)(F)F)cc(C(F)(F)F)c1)c1cc(Cl)ccc1O at 0.08 µM
enzastaurin: Cn1cc(C2=C(c3cn(C4CCN(Cc5ccccn5)CC4)c4ccccc34)C(=O)NC2=O)c2ccccc21 at 4 µM
nilotinib: Cc1cn(-c2cc(NC(=O)c3ccc(C)c(Nc4nccc(-c5cccnc5)n4)c3)cc(C(F)(F)F)c2)cn1 at 1 µM
PD173074: CCN(CC)CCCCNc1ncc2cc(-c3cc(OC)cc(OC)c3)c(NC(=O)NC(C)(C)C)nc2n1 at 0.5 µM
tipifarnib: Cn1cncc1[C@@](N)(c1ccc(Cl)cc1)c1ccc2c(c1)c(-c1cccc(Cl)c1)cc(=O)n2C at 0.05 µM
lestaurtinib: C[C@]12O[C@H](C[C@]1(O)CO)n1c3ccccc3c3c4c(c5c6ccccc6n2c5c31)CNC4=O at 0.02 µM
RKI-983: C[C@@H](N)c1ccc(C(=O)Nc2ccnc3[nH]ccc23)cc1 at 2 µM
tamatinib: COc1cc(Nc2ncc(F)c(Nc3ccc4c(n3)NC(=O)C(C)(C)O4)n2)cc(OC)c1OC at 2 µM

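Human melanoma cells were exposed to a pair of drugs for 72 h in 1,536-well plates and read by automated microscopy after fixing and staining. Values are the number of DAPI-stained nuclei as a percentage of the DMSO control: 100 is no effect, lower means fewer cells. Every drug was used at one fixed concentration, the higher of two screened. No replicate spread is given; individual values may be noisy.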 This is part of the screen, not chosen by result. An entry leaves out what has no value listed here.

{"combination": "enzastaurin + RKI-983", "COLO 829": 74.7, "WM451Lu": 68.6, "COLO 800": 78.3, "COLO 792": 68.1, "C32": 94.5, "WM3619": 80.5}
{"combination": "lenalidomide + PD173074", "COLO 829": 111, "WM451Lu": 108, "COLO 800": 93.1, "COLO 792": 113, "C32": 115, "WM3619": 94.5}
{"combination": "tamatinib + IMD-0354", "COLO 829": 73.7, "WM451Lu": 84.9, "COLO 800": 50.1, "COLO 792": 40.6, "C32": 89.5, "WM3619": 52.7}
{"combination": "lestaurtinib + nilotinib", "COLO 829": 89.7, "WM451Lu": 69.7, "COLO 800": 79.2, "COLO 792": 54.7, "C32": 83.7, "WM3619": 67.6}
{"combination": "tipifarnib + PD173074", "COLO 829": 131, "WM451Lu": 57.5, "COLO 800": 93.9, "COLO 792": 85.3, "C32": 87.9}
{"combination": "IMD-0354 + tipifarnib", "COLO 829": 103, "WM451Lu": 85.9, "COLO 800": 101, "COLO 792": 71.6, "C32": 96.9, "WM3619": 75.6}
{"combination": "lestaurtinib + IMD-0354", "COLO 829": 92.0, "WM451Lu": 86.3, "COLO 800": 81.7, "COLO 792": 52.4, "C32": 102, "WM3619": 70.4}
{"combination": "nilotinib + GSK650394", "COLO 829": 103, "WM451Lu": 119, "COLO 800": 66.0, "COLO 792": 91.3, "C32": 98.3, "WM3619": 104}
{"combination": "tamatinib + lestaurtinib", "COLO 829": 108, "WM451Lu": 99.1, "COLO 800": 58.8, "COLO 792": 52.4, "C32": 86.1, "WM3619": 81.2}
{"combination": "enzastaurin + tipifarnib", "COLO 829": 88.5, "WM451Lu": 53.3, "COLO 800": 85.9, "COLO 792": 91.3, "C32": 99.2, "WM3619": 134}
{"combination": "GSK650394 + PD173074", "COLO 829": 90.6, "WM451Lu": 93.3, "COLO 800": 53.6, "COLO 792": 82.9, "C32": 121, "WM3619": 73.3}
{"combination": "enzastaurin + IMD-0354", "COLO 829": 88.7, "WM451Lu": 89.3, "COLO 800": 62.2, "COLO 792": 116, "C32": 124, "WM3619": 111}
{"combination": "RKI-983 + IMD-0354", "COLO 829": 76.3, "WM451Lu": 93.5, "COLO 800": 67.5, "COLO 792": 94.0, "C32": 73.3, "WM3619": 88.1}
{"combination": "GSK650394 + IMD-0354", "COLO 829": 90.6, "WM451Lu": 101, "COLO 800": 43.4, "COLO 792": 84.9, "C32": 106, "WM3619": 122}
{"combination": "nilotinib + PD173074", "COLO 829": 110, "WM451Lu": 104, "COLO 800": 73.2, "COLO 792": 110, "C32": 94.3, "WM3619": 99.0}
{"combination": "enzastaurin + lenalidomide", "COLO 829": 126, "WM451Lu": 98.1, "COLO 800": 87.4, "COLO 792": 82.5, "C32": 114, "WM3619": 128}
{"combination": "lenalidomide + GSK650394", "COLO 829": 79.5, "WM451Lu": 90.7, "COLO 800": 64.3, "COLO 792": 69.6, "C32": 116, "WM3619": 81.0}
{"combination": "lenalidomide + tamatinib", "COLO 829": 80.0, "WM451Lu": 75.8, "COLO 800": 45.2, "COLO 792": 30.3, "C32": 81.8, "WM3619": 77.0}
{"combination": "lenalidomide + tipifarnib", "COLO 829": 67.6, "WM451Lu": 77.4, "COLO 800": 59.8, "COLO 792": 64.8, "C32": 80.0, "WM3619": 83.1}
{"combination": "IMD-0354 + nilotinib", "COLO 829": 129, "WM451Lu": 101, "COLO 800": 91.2, "COLO 792": 88.8, "C32": 79.5, "WM3619": 74.0}
{"combination": "lenalidomide + nilotinib", "COLO 829": 100, "WM451Lu": 108, "COLO 800": 120, "COLO 792": 88.3, "C32": 96.2, "WM3619": 96.5}
{"combination": "PD173074 + lestaurtinib", "COLO 829": 95.4, "WM451Lu": 91.7, "COLO 800": 78.1, "COLO 792": 50.3, "C32": 88.0, "WM3619": 88.3}
{"combination": "RKI-983 + lestaurtinib", "COLO 829": 96.7, "WM451Lu": 72.9, "COLO 800": 140, "COLO 792": 39.3, "C32": 81.0, "WM3619": 102}
{"combination": "tamatinib + nilotinib", "COLO 829": 82.4, "WM451Lu": 86.2, "COLO 800": 106, "COLO 792": 56.8, "C32": 90.2, "WM3619": 92.4}
{"combination": "lenalidomide + lestaurtinib", "COLO 829": 77.3, "WM451Lu": 91.8, "COLO 800": 58.7, "COLO 792": 68.8, "C32": 83.8, "WM3619": 74.8}
{"combination": "GSK650394 + lestaurtinib", "COLO 829": 71.7, "WM451Lu": 87.4, "COLO 800": 58.1, "COLO 792": 46.5, "C32": 96.9, "WM3619": 80.4}
{"combination": "nilotinib + enzastaurin", "COLO 829": 71.5, "WM451Lu": 123, "COLO 800": 69.0, "COLO 792": 66.6, "C32": 95.6, "WM3619": 124}

Once more, the final 3:

Combination	COLO 829	WM451Lu	COLO 800	COLO 792	C32	WM3619
lenalidomide + lestaurtinib	77.3	91.8	58.7	68.8	83.8	74.8
GSK650394 + lestaurtinib	71.7	87.4	58.1	46.5	96.9	80.4
nilotinib + enzastaurin	71.5	123	69.0	66.6	95.6	124

From a melanoma drug combination screen (doi:10.1371/journal.pone.0140310); values rounded.